PubChem BioAssay AID504774 | Drosophila RNAi Screening Center | 2011
The deposit covers about 23,000 reagents; shown is a random part of those that have a named target and a result. 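Values are quantile-normalised luminescence on an arbitrary scale; higher means more cells surviving MMS.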 A plus sign joins genes that one reagent is predicted to hit. Further read-outs or replicates are left out here. Reagent sequences are not shown.

Aim: 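Fly genes whose loss alters survival after alkylation damage to DNA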 (primary screen)
Cells: Drosophila Kc167 cells
Reagents: long dsRNA against Drosophila genes, about 0.25 µg dsRNA per well
Timing: about 6 days: 3 days knock-down, then 3 days with or without MMS
Treatment: methyl methanesulphonate 0.004% (w/v) for 3 days after knock-down
Read-out: 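Viability in wells given MMS, read as ATP luminescence, normalised by quantiles plate by plate and averaged across replicates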
Scale: mean viability with MMS: higher = more surviving cells after MMS

stw (GeneID 35494) [DRSC04842] showed mean viability with MMS 3.60e6.
For stw (GeneID 35494) [DRSC04843], the values are mean viability with MMS 3.56e6.
stw (GeneID 35494) [DRSC22527] gave mean viability with MMS 3.32e6.
CG9368 (GeneID 40135) [DRSC11067] scored mean viability with MMS 3.42e6.
Against kappaB-Ras + CG30503 [DRSC06619], the entry reads mean viability with MMS 3.51e6.
For kappaB-Ras + CG30503 [DRSC07636] the deposit lists mean viability with MMS 3.55e6.
With knock-down of Bgb (GeneID 38198) [DRSC08148], the record shows mean viability with MMS 3.56e6.
Silencing of CG31908 (GeneID 261613) [DRSC21864] came out at: mean viability with MMS 3.76e6.
For CG31908 (GeneID 261613) [DRSC23243], the entry reads mean viability with MMS 2.88e6.
Against CG34197 (retired record) (GeneID 5740455) [DRSC05791], the entry reads mean viability with MMS 3.39e6.
Depletion of Oatp58Dc (GeneID 37545) [DRSC04363] came out at: mean viability with MMS 3.63e6.
CG5768 (GeneID 42915) [DRSC15870] scored mean viability with MMS 3.55e6.
For mRpS14 (GeneID 117414) [DRSC19444], the entry reads mean viability with MMS 3.56e6.
Knock-down of RpL3 + CG6693 [DRSC16097] gave: mean viability with MMS 3.46e6.
After knock-down of Femcoat (GeneID 31367) [DRSC18061], the record shows mean viability with MMS 3.70e6.
For AP-2sigma (GeneID 42525) [DRSC15957], the values are mean viability with MMS 3.52e6.
Knock-down of CG8607 (GeneID 38805) [DRSC11012] came out at: mean viability with MMS 3.52e6.
After knock-down of Dh31-R (GeneID 36475) [DRSC06647], the screen gave mean viability with MMS 3.65e6.
After knock-down of Dh31-R (GeneID 36475) [DRSC06669] the results were mean viability with MMS 3.69e6.
Depletion of CG17359 (GeneID 39549) [DRSC10265] came out at: mean viability with MMS 3.41e6.
Against Hexo2 (GeneID 31808) [DRSC18671], the entry reads mean viability with MMS 3.44e6.
After knock-down of Gss1 + Gss2 [DRSC20008], the record shows mean viability with MMS 3.72e6.
Gss1 + Gss2 [DRSC21539] showed mean viability with MMS 3.62e6.
CG3149 (GeneID 31489) [DRSC17732] gave mean viability with MMS 3.68e6.
Depletion of CG33493 (GeneID 2768994) [DRSC10642] gave: mean viability with MMS 3.67e6.
Knock-down of CG18748 (GeneID 59144) [DRSC15385] came out at: mean viability with MMS 3.54e6.
After knock-down of Hsf (GeneID 37068) [DRSC07443], the record shows mean viability with MMS 3.23e6.
For CG40498 (GeneID 3354890) [DRSC07786], the values are mean viability with MMS 3.63e6.
CG34386 (GeneID 5740303) [DRSC06467] showed mean viability with MMS 2.85e6.
CG34386 (GeneID 5740303) [DRSC06468] scored mean viability with MMS 3.62e6.
After knock-down of CG34386 (GeneID 5740303) [DRSC23234], the record shows mean viability with MMS 3.57e6.
With knock-down of CG2652 (GeneID 31250) [DRSC18501], the screen gave mean viability with MMS 3.66e6.
CG2652 (GeneID 31250) [DRSC22576] showed mean viability with MMS 3.66e6.
CG4328 (GeneID 39405) [DRSC10410] gave mean viability with MMS 2.79e6.
Depletion of CG4328 (GeneID 39405) [DRSC23146] resulted in: mean viability with MMS 3.49e6.

A portion of the results above, as a working copy:
CG34386 (GeneID 5740303) [DRSC06467] — mean viability with MMS = 2.85e6
CG34386 (GeneID 5740303) [DRSC06468] — mean viability with MMS = 3.62e6
CG34386 (GeneID 5740303) [DRSC23234] — mean viability with MMS = 3.57e6
